# Most values lie at the floor of the assay. Slopes are relative: functional sequences can read slightly below zero.
# Test system: Saccharomyces cerevisiae PS128 hsf1 delta, HSF1(1-493) fusion
# Experiment: growth estimate (transactivation domain function in HSF1 fusion, heat-shock survival) (a.u. (slope of normalised read count over time)); higher = stronger growth at 37°C, i.e. more transactivation activity
# Details: library: random library
row,Substance,growth estimate
1,TGNLSAWNHPRGEQHGT,< -0.25
2,YFLYVRARTERGGMSWFNLQ,< -0.25
3,IHDRTECTSRKGGR,< -0.25
4,SGRMQRGRSVCWAEGSMAAL,< -0.25
5,PALQWMCYRETTSTQTCWML,< -0.25
6,RRRSGVARRIARSTGWVSVL,< -0.25
7,GNGLRSDCRQSLNKQGTTAA,< -0.25
8,PDPLPEAVYRDGVIPRVRDA,< -0.25
9,SSRYGSGNLGIPPEASRFVV,< -0.25
10,VNI,< -0.25
11,LVEGSVLTVSRNISYSGFEL,< -0.25
12,CSSC,< -0.25
13,LPEYQAIGYILQGITFLQDE,< -0.25
14,YLAKPRK,< -0.25
15,TWMLWVT,< -0.25
16,SDVNIVE,< -0.25
17,FGLVKAYLGLISRRICKIEW,< -0.25
18,AHTRPSAARVAAIEACTSPL,< -0.25
19,GGLVPGSVSTRFEDSATVNS,< -0.25
20,YRPSV,< -0.25
21,GFGAVDRSFRSTCSLA,< -0.25
22,FVH,< -0.25
23,PTRNHQGWHYVAGSVIGS,< -0.25
24,LREILMGGG,< -0.25
25,FDWM,10.5

# Exported as tab-separated lines: part of the list above
row	Substance	growth estimate
8	PDPLPEAVYRDGVIPRVRDA	< -0.25
21	GFGAVDRSFRSTCSLA	< -0.25

# Remaining list, next part:

row,Substance,growth estimate
1,RAPPDWYVPAMCGSPRVPPK,< -0.25
2,RTRVGLLIG,< -0.25
3,SVKTRCKSRGKASS,-0.245
4,LAGDLSGT,< -0.25
5,RPTE,< -0.25
6,ALLF,< -0.25
7,GKSLIRVLGLRLS,< -0.25
8,SVYWSVQIIRQQANYYGHWG,< -0.25
9,TTSKAKSACIEQPKPPKTSV,< -0.25
10,SHLGKIMFFLVSTSGSLSEG,< -0.25
11,ERGARSWTPEVVLLIRSAKL,< -0.25
12,GELA,< -0.25
13,GIRLCYAERGKDLVPSKFR,< -0.25
14,PGPGVSSCISAQCAFESLVI,< -0.25
15,DMLCTECQDKGAGQLFWSAL,< -0.25
16,CFLKSGRPDACLRVLGTGSG,< -0.25
17,SIRALNTLVVRYAFG,< -0.25
18,DGTGWSVTFI,< -0.25
19,LNALEVIRELTRKVSFWATP,< -0.25
20,EVEV,< -0.25
21,PYAQNLTPPSPVQGLRTIIS,< -0.25
22,VIVGVNCGVNLARQYRDVLS,< -0.25
23,RAVVI,< -0.25
24,GRVVSRHGMSPVGLSWGGKA,< -0.25
25,VVGLVDGVGLEMIYTVSVTK,< -0.25

row,Substance,growth estimate
1,GVLTRKSSPSIRVKTPLLV,< -0.25
2,RTCHDGL,< -0.25
3,GRMR,-0.172
4,ALIECAGYSTS,< -0.25
5,LYGRLR,< -0.25
6,TGAGQHWVIKYHQVNH,< -0.25
7,GIPARIPGFRARVAGMRHHV,< -0.25
8,AVTKGTRHSRSQNGARTSSM,< -0.25
9,RATALGTSDPEDDLSLGEGK,< -0.25
10,CYLHASTLASVTNPLSYISG,< -0.25
11,ISSQN,< -0.25
12,EQRSDNRGDMCRIK,< -0.25
13,SRGCTVHGMFYGVHIWPALA,< -0.25
14,KHC,< -0.25
15,KAVLSCRSICRPTGHLSERC,< -0.25
16,WGTEFNELTLVRELILLAQV,< -0.25
17,FVRHPPSRGASLSTQ,< -0.25
18,PYMSMSSSFVVGLRNTTLGP,< -0.25
19,TSVGTLFRLRTQ,< -0.25
20,YRSSP,< -0.25
21,RHYLSTR,< -0.25
22,DSGPWTGAILRARCCIYSLL,< -0.25
23,ARLPFKPVSGGWRRTTWRRA,< -0.25
24,KFVILVCMYCGMSDPGLFGV,< -0.25
25,MAEAVGLRQYARHLVDKVGA,< -0.25

row,Substance,growth estimate
1,DTARCFQVQNRVRTPDLPHL,< -0.25
2,RTISSRDLQRYGRNATGNVS,< -0.25
3,TRGIGQFSGTRRRHTCS,< -0.25
4,SVV,< -0.25
5,KPGCRQ,< -0.25
6,DFEECTPLVISP,< -0.25
7,SSSYVCYAGSVCT,< -0.25
8,MPRGHPSLRGKSIRM,< -0.25
9,YRPVTIGNWFEVTLGGRELP,< -0.25
10,CIVGQACPKWQKTILDLGCP,< -0.25
11,FMVCQRCTIPSRPRIFNVVP,< -0.25
12,VGNVEVSQTERFRMSPK,< -0.25
13,ALTIGGTLQSAI,< -0.25
14,PELVLGGLT,< -0.25
15,LLCLNVAGSSIQDRNAITDE,< -0.25
16,NMLEGRSVFSTKSKRPWYYC,< -0.25
17,EEVEAMPEDYGDKPTV,< -0.25
18,NGNSSVPVFPPLGDLV,< -0.25
19,RHMEYHRPSASITFALTSGS,< -0.25
20,MRTNC,< -0.25
21,GIRPGVTNPPPAPQEVHYHA,< -0.25
22,LVHGIAGTSKYAIGIRIWGA,< -0.25
23,LDRLWQRARGRSYLHCLAQL,< -0.25
24,LRIRKHGCP,< -0.25
25,RTDWECTQGHQRVPEGQRPR,< -0.25

# Seven entries from above, with bars between the fields.
row | Substance | growth estimate
1 | DTARCFQVQNRVRTPDLPHL | < -0.25
2 | RTISSRDLQRYGRNATGNVS | < -0.25
5 | KPGCRQ | < -0.25
8 | MPRGHPSLRGKSIRM | < -0.25
16 | NMLEGRSVFSTKSKRPWYYC | < -0.25
23 | LDRLWQRARGRSYLHCLAQL | < -0.25
24 | LRIRKHGCP | < -0.25

# (cont.)

row,Substance,growth estimate
1,GHG,< -0.25
2,YHLRKWTPAVVSGARAVGRD,< -0.25
3,LTTGQDFSGRRMPRKYRDRM,< -0.25
4,FEPQSVSRIGH,0.0525
5,LSQYWRTPLASSQVGKLFKP,< -0.25
6,WNAELLRMGWDQSGIRRGAG,< -0.25
7,RPSSQAWPSMY,< -0.25
8,TSA,< -0.25
9,AMLLHAQYSYSCWERRTRYG,< -0.25
10,ESKSHHVIADCSAIR,< -0.25
11,VVTDQHQCRDRFNVFEVVNT,< -0.25
12,TVR,< -0.25
13,SQSPISEISFL,< -0.25
14,LGL,< -0.25
15,SITALVGLE,< -0.25
16,GPGSRHTIKWVRVNFDMRHQ,< -0.25
17,AQAPLAVRIPNEGAGTRQGH,< -0.25
18,SIASCCHDLVSSVRAPSIRV,< -0.25
19,SGSGLWPRSGQNAYGYCRVP,< -0.25
20,FESLAYTKVFKSLIVYLIPV,< -0.25
21,ACRSRSTRHCCAYKRHAVQY,< -0.25
22,PFAETR,< -0.25
23,LNTF,< -0.25
24,LTGTESDNGTNLFVYFFPTF,< -0.25
25,GGVT,< -0.25

row,Substance,growth estimate
1,LGMSVEGSSDSSIECDLAVD,< -0.25
2,LFASSA,< -0.25
3,DVKVHGYNHVCNHPGRVLAR,< -0.25
4,QITEGSWPTSRCICFALVTR,< -0.25
5,VKYAPGSFREYHFIFLQTWR,< -0.25
6,KHVSAIRRGMVMAYVRRDLV,< -0.25
7,SWFKLADAARETRLGTRPSS,< -0.25
8,TPRAYTEKDYGLEYAANHFV,< -0.25
9,PSHIYWVVSPVGGVLILQQS,< -0.25
10,VSCTLTAASVRMTVGSGSMK,< -0.25
11,IVETTYSLVCVFERLANSSI,< -0.25
12,ILPLSSYAGTGTAARSPGYQ,< -0.25
13,RPCRNDPGLC,< -0.25
14,RSIAIQCGRRVPRVLGMSAR,< -0.25
15,GGHPEGS,< -0.25
16,YYNRKLVSCGILVGQSHPST,< -0.25
17,ISTRWRSWIVDRSVRSEFLC,< -0.25
18,LVHLAVWNSEPQGRVHSENR,-0.243
19,PIHDKFAARRRHDCCLLRTF,< -0.25
20,LSRPTFSLHGFRLRRAVKSY,< -0.25
21,SPG,< -0.25
22,PLPGPFTRL,< -0.25
23,LGFDPDPGRTISARQSLDPP,< -0.25
24,LHGDGTERADGIRFRLSSGT,< -0.25
25,IIGIAFDCR,-0.25

row,Substance,growth estimate
1,GSRSGVLEWDCRPGWGRHSL,< -0.25
2,GRIRNNCVDTTRIDRVDGIV,< -0.25
3,FTRRRAACRCPRPFVTIIAR,< -0.25
4,KFLYLRGEESRLIATHKDQH,< -0.25
5,RLICIDRITG,< -0.25
6,FSPCRGVEFYNRFAPN,< -0.25
7,CDPVAHHMSGANSGME,< -0.25
8,QLDVRHPIHSKAERIWLVHD,< -0.25
9,HLDNSPYSCCADLHMPISPT,< -0.25
10,GTHYTNAARTGQRAVRSWGR,< -0.25
11,YRG,< -0.25
12,TVGYM,< -0.25
13,SVTGCRLGLNTRQHGRIWQV,< -0.25
14,AGLSDHTPKKSVTCVHTVNR,< -0.25
15,TPSGC,< -0.25
16,NAMVVSIKDGRDLSLVPADT,< -0.25
17,NPLAHGELDI,< -0.25
18,RRS,< -0.25
19,VRGVQ,< -0.25
20,TTVHAALLYKLRTTLQDSAS,< -0.25
21,HPEVSTRQQSERYGMTRREP,< -0.25
22,GMMVQPQQ,< -0.25
23,CCPAPNA,< -0.25
24,GWGKSIGYLVIS,< -0.25
25,YHEFVLLWDG,-0.188

row,Substance,growth estimate
1,VMALPLVTNWFLRPPRQAIR,< -0.25
2,RYRGCKGVNGALMGPWMSSS,-0.237
3,ELWDRSAT,< -0.25
4,EQLPACANLISLVSTFGPRG,< -0.25
5,KVYHCDRLIATLPSVERRH,< -0.25
6,SQESSGQIY,< -0.25
7,VILGVIGSSSARDYCKFLIP,< -0.25
8,GWRHRASLPRGFFSGFLAPC,< -0.25
9,YSG,< -0.25
10,GIALSQPVQPPRDHATPGGI,< -0.25
11,NAIYREQARPNGCITRKAGL,< -0.25
12,VKPPIVLLLNCYVRGITRPS,< -0.25
13,IPPRFPHMRGPF,< -0.25
14,YADSRHTDPNLALVR,-0.169
15,CIYLRPA,< -0.25
16,IYR,< -0.25
17,YAVGMGSGGGRVLVKTQSTR,< -0.25
18,GEQPINVHV,< -0.25
19,RFT,< -0.25
20,HARIHI,< -0.25
21,CAS,< -0.25
22,HHEAGGNGPDHWEAYRYDSG,-0.248
23,TPFK,< -0.25

# For reference, some entries already given:
row,Substance,growth estimate
12,VKPPIVLLLNCYVRGITRPS,< -0.25
13,IPPRFPHMRGPF,< -0.25
14,YADSRHTDPNLALVR,-0.169
